Results on 42 sequences are retold here after paper PMC7819943, “Rice protein-binding microarrays: a tool to detect cis-acting elements near promoter regions in rice”.

The other results are listed elsewhere or left out.

For this assay, the target named is T1, OsSMF1 (Oryza sativa, UniProt Q6ZLB0 1-436).
T1 sequence: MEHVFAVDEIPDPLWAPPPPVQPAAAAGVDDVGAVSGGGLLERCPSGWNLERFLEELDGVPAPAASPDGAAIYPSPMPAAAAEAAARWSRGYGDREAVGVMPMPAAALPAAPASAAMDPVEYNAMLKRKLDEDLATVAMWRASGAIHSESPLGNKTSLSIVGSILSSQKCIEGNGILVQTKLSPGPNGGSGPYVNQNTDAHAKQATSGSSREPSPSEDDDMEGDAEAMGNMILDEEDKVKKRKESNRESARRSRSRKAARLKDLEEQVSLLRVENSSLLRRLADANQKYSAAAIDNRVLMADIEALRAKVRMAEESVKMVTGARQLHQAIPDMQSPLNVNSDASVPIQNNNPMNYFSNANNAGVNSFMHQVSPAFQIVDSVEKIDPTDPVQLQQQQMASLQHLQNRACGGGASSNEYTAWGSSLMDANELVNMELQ
Put plainly: protein-binding microarray (RPBM); PBS, 2% BSA, 51.3 ng/ul salmon testes DNA, 50 uM zinc acetate, 200 nM TF, 25 C, 1 h; high values mean tight binding. To be noted: protein: recombinant; tags: N-terminal polyhistidine and DsRed monomer fusion (pET32a); chain copies: 2; label: CyDye5-dUTP incorporated in the synthesized complementary strand; 3' TTTTT single-stranded linker to array surface; dsDNA, one strand shown. In short, it runs like this:
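Polyhistidine-tagged DsRed fusions of transcription factors, joined at the N-terminus, were expressed in E. coli BL21-CodonPlus and isolated on Ni–NTA. They were incubated at 200 nM for 1 h at 25 °C on a custom Agilent array, double-stranded and BSA-blocked, in PBS with 2% BSA, salmon testes DNA and 50 µM zinc acetate. The binding signal is per-feature fluorescence intensity (arbitrary units) read on an Axon 4000B scanner after washing.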
As for “CGCCTCCTCTTCTCCCAGCATCCACGTATAAATAAGCTCTCGGAGTCACCTAGTGCAG”, the binding signal is 4490 fluorescence intensity (a.u.).
As for “AGACAGTGAATGGCAGAGTCCAAGTCACACACACTACACTCGGAGTCACCTAGTGCAG”, the binding signal is 4510 fluorescence intensity (a.u.).
As for “ATTGTACTTTGCTAACACATCACGCACATAGCTACGGCTGCGGAGTCACCTAGTGCAG”, the figure is 4760 fluorescence intensity (a.u.); as for “GTGTTGCCATACATGTTGACGTGGCATCACGATAAGGTGGCGGAGTCACCTAGTGCAG”, 24300 fluorescence intensity (a.u.); as for “AAAAGGAGGGGAGGTGGATGACGATGTATCGTTCGCGTGTCGGAGTCACCTAGTGCAG”, 4520 fluorescence intensity (a.u.).
As for “TGTCCTTTGTAGCTTGGAGTCATCCGTTTTGACGTTCATGCGGAGTCACCTAGTGCAG”, the figure is 3690 fluorescence intensity (a.u.); as for “AGGGTAAAATTAAATAGGCGAACCAACGATCTGATCACATCGGAGTCACCTAGTGCAG”, 20700 fluorescence intensity (a.u.); as for “TGGGGTTACATGAGGAGGGAAGGAGAGGAACAGAGGGTCCCGGAGTCACCTAGTGCAG”, 3730 fluorescence intensity (a.u.).
Then “GGGGAAAGAGAGAGCAGACTGACGTGTCCACGTTGATATGCGGAGTCACCTAGTGCAG”, with 14000 fluorescence intensity (a.u.); and “CTCGCATTTCCCAGCTCGGATCCTCTTCTGACTTCTCTCTCGGAGTCACCTAGTGCAG”, with 4360 fluorescence intensity (a.u.).
Turning to “AAATTTTCAGAGAATGACTAAGGACAGCATGAAAGCTTGTCGGAGTCACCTAGTGCAG”, the binding signal is 3390 fluorescence intensity (a.u.).
For “TTCCTTATATCTGACATATGTTCAAATGACGCATTATAGCCGGAGTCACCTAGTGCAG”, the binding signal is 4120 fluorescence intensity (a.u.).
As for “CGTCGGTCGCACCGCCGGTTCACGGGCCACGTATAGGAGTCGGAGTCACCTAGTGCAG”, the figure is 4530 fluorescence intensity (a.u.); as for “GACAACCGAACACGTCGAGCCAGCGAATGATGAAACCCCACGGAGTCACCTAGTGCAG”, 31800 fluorescence intensity (a.u.); as for “TGCTTTTATGACTGTTGGCATTGCCCTTGTCAGTTGGTTGCGGAGTCACCTAGTGCAG”, 3860 fluorescence intensity (a.u.).
For the sequence “AATCACTTGGGGACAACGTGTCACCGCCTCCACCGGACAACGGAGTCACCTAGTGCAG”, the binding signal was 4260 fluorescence intensity (a.u.).
Regarding “ACTGTACATCCTTTAACTATATGTTGAGTTTGATTCACACCGGAGTCACCTAGTGCAG”, the binding signal is 3660 fluorescence intensity (a.u.).
For the sequence “TGAGTCCTCGGCGAAGCCCGTGTGCCTGACACACTGACCACGGAGTCACCTAGTGCAG”, the binding signal was 3560 fluorescence intensity (a.u.).
As for “TGTCATGCCACGTTATATTTTGCTAAACTATCTCTATATACGGAGTCACCTAGTGCAG”, the figure is 6760 fluorescence intensity (a.u.).
As for “CTTTTCTCCGACCATCCTGACTCACCTGCCATTAAGGAAGCGGAGTCACCTAGTGCAG”, the figure is 4680 fluorescence intensity (a.u.); as for “ATGACCGGAGATGGGTGGGGAGAAGGCTTGCAGCTGTCGACGGAGTCACCTAGTGCAG”, 3320 fluorescence intensity (a.u.).
Turning to “AAACTATGCAGAATCTGACTTGTCAATGATTCTCTGTTTCCGGAGTCACCTAGTGCAG”, the binding signal is 3740 fluorescence intensity (a.u.).
Take “ATGGCACAGTGTGACGGGAGACCCACCAGCCATTGGGCTGCGGAGTCACCTAGTGCAG”: the binding signal is 3920 fluorescence intensity (a.u.).
As for “GCACGAATCGTGAAGCAGATCCGACGGTCCTAGCAATCCGCGGAGTCACCTAGTGCAG”, the figure is 20600 fluorescence intensity (a.u.); as for “TGGCAGCTTTGGCGCCACGCCAGCAATTTCTGCCTGTGGACGGAGTCACCTAGTGCAG”, 9260 fluorescence intensity (a.u.); as for “GAGCTTCTGACTCATCTTTACTAGGAAGGGTCTTTTCAAGCGGAGTCACCTAGTGCAG”, 39100 fluorescence intensity (a.u.).
As for “TAAGTCAATTGTAATGACTATAGTACTGTACGGAGTAATTCGGAGTCACCTAGTGCAG”, the figure is 3260 fluorescence intensity (a.u.); as for “TCCATGAGCCACGTGATATACTCTCTGTGTGTGTGTTTGCCGGAGTCACCTAGTGCAG”, 5710 fluorescence intensity (a.u.).
Then “GGGCCTAACCTGTCAGTCAGCATGGGCCACCCCGCCCATCCGGAGTCACCTAGTGCAG”, with 4400 fluorescence intensity (a.u.); and “GAGGACTGTTCAGGACTTGACAGAATTGAAGATGAGGGTCCGGAGTCACCTAGTGCAG”, with 3360 fluorescence intensity (a.u.).
For “AGGACGTCACGTCACCGACACGTGGGGCCCACCCCACCCGCGGAGTCACCTAGTGCAG”, the binding signal was 13900 fluorescence intensity (a.u.).
Turning to “CTTACCATCTCCCCAAGCGGGAGAGTGGACGTCATAATTTCGGAGTCACCTAGTGCAG”, the binding signal is 45700 fluorescence intensity (a.u.).
Consider “TCTTGGAGAGTTCACACTACACATCATTCTGATGATAACTCGGAGTCACCTAGTGCAG”, for which the binding signal is 3430 fluorescence intensity (a.u.).
As for “CTTACCCCTATTAAATGTGCATGACACACCAGTGAAACCCCGGAGTCACCTAGTGCAG”, the figure is 4240 fluorescence intensity (a.u.).
As for “CATGCGAAAGCTCAGCTATACATAGGAAAAGAAGAGGGAGCGGAGTCACCTAGTGCAG”, the figure is 26000 fluorescence intensity (a.u.); as for “TATTTGGTTTTGTAGGGGTTGGTTTGGGAAAATTGGAAAGCGGAGTCACCTAGTGCAG”, 4240 fluorescence intensity (a.u.); as for “CAGAAATGGGCACTGAGTCAAACAACACCACATCATTAATCGGAGTCACCTAGTGCAG”, 3690 fluorescence intensity (a.u.).
“TTGTGTTAAGTATATTTCATTGTGACACACAAGAGCCCAGCGGAGTCACCTAGTGCAG”: the binding signal was 3390 fluorescence intensity (a.u.).
Take “TAGTTTGATTCTGACCAAAGTCAAAATATCTTATAACCTGCGGAGTCACCTAGTGCAG”: the binding signal is 3180 fluorescence intensity (a.u.).
With “TTTGAACAATTAAACGGCAAATCTACGTGGCACCAATATACGGAGTCACCTAGTGCAG”, the binding signal is 11500 fluorescence intensity (a.u.).
On to “GATCCCAATCTCCATCGCCGCCTCCACTCCAGTGTACCGCCGGAGTCACCTAGTGCAG”, for which the binding signal is 6420 fluorescence intensity (a.u.).
For the sequence “ATCTTGGGCAATGCCACATCCCCTCACCACCACCACCAACCGGAGTCACCTAGTGCAG”, the binding signal is 5030 fluorescence intensity (a.u.).
